The values that follow come from publication PMC11326647, “In vitro reconstitution reveals membrane clustering and RNA recruitment by the enteroviral AAA+ ATPase 2C” (PLOS Pathogens, 2023).

These are yes or no findings as the source states them, for the method shown. Some results given as binding are weak or reduced against the parent protein; the word gives no strength.

For the experiment, the target named is apoferritin (UniProt P02791). Nature of the experiment: mass photometry; proteins diluted to 100 nM in 50 mM Tris pH 7.4, on a glass coverslip, recorded 60 s; three repeats; both purified.

B1: apoferritin (complex, UniProt P02791 1-175)
chain: MSSQIRQNYSTEVEAAVNRLVNLYLRASYTYLSLGFYFDRDDVALEGVCHFFRELAEEKREGAERLLKMQNQRGGRALFQDLQKPSQDEWGTTLDAMKAAIVLEKSLNQALLDLHALGSAQADPHLCDFLESHFLDEEVKLIKKMGDHLTNIQRLVGSQAGLGEYLFERLTLKHD
As for B1, the binding result is “binds”.
